# US8222187B2, “Method for improving the phytoremediation of polluted sites by providing plants with exogenous carbohydrates” (Universite de Rennes 1, priority 2003, dated 2012)
# System: Arabidopsis thaliana
# Experiment: Atrazine concentration in plants cultivated on agar medium (HPLC-UV)
# Assay type: in vivo
compound,measurement,setting,value
"CCNc1nc(Cl)nc(NC(C)C)n1 [atrazine, 2-chloro-4-ethylamino-6-isopropylamine-1,3,5-triazine]",amount of atrazine accumulated from the surrounding agar medium,"8 g of fresh mass of Arabidopsis plants, with sucrose",95 micrograms
same,atrazine content of the plants,"plants cultivated in the presence of sucrose, atrazine at 0.5 picomoles per milligram of medium",3.7 (±0.3) nanomoles of atrazine per gram of fresh weight
